In PubChem BioAssay AID624291 (National Center for Advancing Translational Sciences (NCATS), 2012):
About 220 (0.063%) of roughly 350,000 compounds were called active. The shares of active, inactive and inconclusive entries below differ from those in the screen. The call rests on the fitted dose curve; in most records, active means well fitted activation curve with a large enough effect; inconclusive means small, poorly fitted or top-dose-only effect; inactive means no such curve, though single readings can be large or run the other way. A potency beside an inconclusive call is a rough fit, not a confirmed value.

test: qHTS for Activators of Integrin-Mediated Alleviation for Muscular Dystrophy; settings: alpha7betagal myoblasts, beta-gal FDG fluorescence, 48 h; activation: at 38.3 µM (top of the series); further: nearly all actives have a fitted effect of over 60% in size;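 on activation: 100% = response of the positive control SU9516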
Procedure, shortened: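 alpha7betagal+/- myoblasts (passage 13, 250/well) treated 48 h at 37C with compounds at 1:260 dilution of DMSO stock. Lysed, then beta-galactosidase activity read as FDG fluorescence (ex 480/em 540) after 30 min, with pre-read for autofluorescence.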
Potency means the concentration at half of the fitted maximal effect.

SMILES | Potency | activation
CCOc1cc(S(=O)(=O)Nc2ncn[nH]2)ccc1Br | inconclusive: 5.01 µM [activator, single point] | –
Cc1ncc(CO)c2c1Oc1nc(-c3ccccc3F)nc(SCC(=O)N(C)c3ccccc3)c1C2 | inconclusive: 28.2 µM [activator, single point] | –
COC(=O)c1c(C(=O)OC)c2n(c1C)CCS2 | inconclusive: 28.2 µM [activator, single point] | –
O=C(N/N=C/c1ccccn1)NC12CC3CC(CC(C3)C1)C2 | inconclusive: 5.01 µM [activator, single point] | –
CCOC(=O)c1c(C)[nH]c(C(=O)OCC(=O)NCc2ccc(C)cc2)c1C | inconclusive: 3.16 µM [activator, single point] | –
CC(C)(C)NC(=O)C1N(c2cccnc2)C(=O)C2C(C(=O)Nc3ccccc3)C3(C)C=CC21O3 (stereo not given) | inconclusive: 11.2 µM [activator, single point] | –
Cc1ccc(N(CC(=O)NCCc2ccc(Cl)cc2)S(=O)(=O)c2c(C)noc2C)cc1 | inconclusive: 1.78 µM [activator, partial curve, poor fit] | –
CCS(=O)(=O)c1ccc(C(=O)Nc2ccccc2OC)c(Cl)c1Cl | – | inactive: 13.8%
O=C(NCCN1CCN(S(=O)(=O)c2ccccc2)CC1)C(=O)Nc1ccc(F)cc1 | inconclusive: 10 µM [activator, partial curve, poor fit] | –
CCN(CC(=O)NNC(=O)c1ccccc1)Cc1ccc(OC)c(F)c1 | – | inactive: -1.38%
CCn1ccc(C(=O)NC2=C(C#N)CCC2)n1 | inconclusive: 5.01 µM [activator, partial curve] | –
COC(=O)c1c(NC(=O)COC(=O)CCc2ccc(S(=O)(=O)N3CCOCC3)cc2)sc2c1CCC2 | inconclusive: 10 µM [activator, partial curve, poor fit] | –
CC1CCN(C(=S)c2cn(Cc3ccccc3F)c3ccccc23)CC1 | – | inactive: -49.5%
O=Cc1ccc(N2CCCC2)c([N+](=O)[O-])c1 | – | inactive: 7.6%
CC(C)NC(=O)C1CCN(C2CCN(Cc3nc(C(C)C)cs3)CC2)CC1 | inconclusive: 12.6 µM [activator, single point] | –
CC(OC(=O)c1ccccc1Oc1ccccc1)C(=O)NC1CC1 (stereo not given) | inconclusive: 12.6 µM [activator, single point] | –
Cc1ccc(Cl)cc1NC(=S)NN | inconclusive: 10 µM [activator, partial curve] | –
COc1cc2[nH]cc(C(=O)NCCc3ccccc3)c(=O)c2cc1OC | – | inactive: 2.47%
O=S(=O)(c1ccc(F)c(F)c1F)N1CCN(C(=S)NC2CC3CCC2C3)CC1 (stereo not given) | inconclusive: 1.26 µM [activator, partial curve, poor fit] | –
COc1ccc(C(=O)O/N=C(\N)c2ccc(OC)c(OC)c2)cc1 | inconclusive: 5.01 µM [activator, single point] | –
CCCCNC(=O)N(O)C1N(/N=C/c2ccccc2OC)C(=S)SC1(C)C (stereo not given) | inconclusive: 2 µM [activator, full curve] | –
Cc1nc(Nc2ccc(O)cc2)c2c3c(sc2n1)CCCC3 | – | inactive: -5.16%
CCOC(=O)N1CCN(C(=O)CN2C(=O)NC(C)(c3ccc4ccccc4c3)C2=O)CC1 (stereo not given) | – | inconclusive: -4.7% [activator]
Cc1ccc(S(=O)(=O)NCc2ccc(C(=O)N3CCc4ccccc4C3)cc2)cc1 | – | inactive: -10.6%

SMILES | Potency | activation
Cc1ccc(Cn2cc(S(=O)(=O)c3ccc(Cl)cc3)c(=O)c3cc(F)ccc32)cc1 | inconclusive: 11.2 µM [activator, partial curve, poor fit] | –
CCC(C)Sc1nc2c(cnn2-c2ccc(F)cc2)c(=O)[nH]1 (stereo not given) | inconclusive: 28.2 µM [activator, single point] | –
Cc1nnc(N/N=C/c2cc([N+](=O)[O-])c(N3CCC(C)CC3)cc2N2CCC(C)CC2)n1N | – | inactive: -45.6%
c1ccc2c(c1)CCN(C1=Nc3cccc4cccc1c34)C2 | – | inactive: -18%
CC(=O)/C(=N\Nc1ccccc1Cl)Sc1cccc2cccnc12 | inconclusive: 28.2 µM [activator, single point] | –
O=C1CC(c2ccccc2)c2cc(O)ccc2O1 (stereo not given) | inconclusive: 5.01 µM [activator, single point] | –
Cc1ccccc1NC(=O)Cc1nc(COC(=O)c2ccc(S(C)(=O)=O)c([N+](=O)[O-])c2)cs1 | – | inactive: -59.7%
O=S(=O)(c1cccc2nsnc12)N1CCc2ccccc21 | – | inactive: 9.4%
CC(=O)c1c(C)[nH]c(C(=O)OCc2ccccc2)c1C | inconclusive: 1.26 µM [activator, partial curve, poor fit] | –
CC(C)c1ccccc1OCC(=O)Nc1cc(S(=O)(=O)N2CCOCC2)ccc1N1CCCC1 | inconclusive: 28.2 µM [activator, single point] | –
COCCNS(=O)(=O)c1ccc(C)c(C)c1C | – | inactive: 9.07%
CCCc1nc(SCC(=O)c2ccc3c(c2)NC(=O)CO3)[nH]c(=O)c1CC | inconclusive: 2.51 µM [activator, partial curve, poor fit] | –
CN(C)c1ccc(Nc2ncnc3ccc(Br)cc23)cc1 | inconclusive: 10 µM [activator, single point] | –
CCCOc1cccc(C2C(C(=O)c3ccco3)=C(O)C(=O)N2c2nnc(C)s2)c1 (stereo not given) | inconclusive: 3.55 µM [activator, single point] | –
CCOC(=O)c1sc(=S)n(-c2ccccc2Cl)c1SC | – | inactive: 0.784%
[O-][N+]12CCCCC1CCCC2CO (stereo not given) | inconclusive: 5.62 µM [activator, partial curve, poor fit] | –
CC(C)COc1cccc(C(=O)Nc2ccc(S(=O)(=O)N3CCOCC3)cc2)c1 | – | inactive: 10%
O=C(O)c1cc(S(=O)(=O)NCCN2CCNC2=O)ccc1O | inconclusive: 2.82 µM [activator, partial curve, poor fit] | –
Cn1c2ccccc2c2cc(/C=N/NC(=O)c3ccc(O)cc3O)ccc21 | – | inactive: 1.19%
CCCNC(=O)COc1coc(CN2CCN(c3ccccc3F)CC2)cc1=O | – | inactive: 3.56%
Cc1c(C(=O)NCc2ccc3c(c2)cc(C)n3C)cccc1[N+](=O)[O-] | – | inactive: -17.3%
CCOc1ccc(Oc2c(C)oc3cc(O)ccc3c2=O)cc1 | – | inactive: -3.84%
Cc1cc(C(=O)N/N=C/c2ccc([N+](=O)[O-])cc2)c2ccccc2n1 | – | inactive: 15.9%
CCOc1ccccc1N(CC(=O)NC1CCCC1)C(=O)CCCC(=O)Nc1ccccn1 | inconclusive: 11.2 µM [activator, partial curve, poor fit] | –

SMILES | Potency | activation
COc1ccc(C(=O)NN(C)c2nc(C(F)(F)F)nc3ccccc23)cc1 | inconclusive: 2.82 µM [activator, single point] | –
O=C(O)c1ccc(NC(=S)NC(=O)c2ccc(-c3ccc(Br)cc3)o2)cc1 | inconclusive: 14.1 µM [activator, partial curve, poor fit] | –
CN(C)c1cccc(C(=O)OCC(=O)Nc2ccccc2Sc2ccccc2)c1 | inconclusive: 5.01 µM [activator, single point] | –
CC(CCc1ccccc1)NC(=O)COC(=O)c1cccs1 (stereo not given) | inconclusive: 20 µM [activator, partial curve, poor fit] | –
CCc1cccc(C)c1NC(=O)COC(=O)c1ccc2c(c1)S(=O)(=O)c1ccccc1C2=O | – | inactive: 12.8%
CCN(CC)C(=S)NC(=O)c1ccc(Cl)cc1Cl | – | inactive: -15.3%
Cc1cc2c(=O)n(CC(=O)NCC(=O)Nc3ccc(C(C)C)cc3)cnc2s1 | inconclusive: 5.01 µM [activator, single point] | –
Cc1nnc(SCC(=O)c2c(N)n(Cc3ccccc3)c(=O)n(C)c2=O)n1C | inconclusive: 5.01 µM [activator, single point] | –
Cc1ccc(S(=O)(=O)NCC(c2ccco2)N2CCOCC2)cc1 (stereo not given) | inconclusive: 17.8 µM [activator, single point] | –
CC1CCN(S(=O)(=O)c2ccc3c(c2)n(C)c(=O)n3C)CC1 | inconclusive: 28.2 µM [activator, single point] | –
O=C(NC1CC1)c1c(O)c2ccccc2[nH]c1=O | – | inactive: 2.57%
COc1ccccc1-c1cc(-c2ccccc2)nc(SC(C(N)=O)c2ccccc2)c1C#N (stereo not given) | – | inactive: -69.7%
CCOc1cc(CN2CCCC(N3CCN(c4ccc(F)cc4)CC3)C2)ccc1OC (stereo not given) | inconclusive: 0.708 µM [activator, single point] | –
Cc1cc(Cl)ccc1OCC(=O)N[C@@H](Cc1ccccc1)c1nc2ccccc2[nH]1 | inconclusive: 11.2 µM [activator, partial curve, poor fit] | –
Cc1ccc(S(=O)(=O)n2nc(OC(=O)c3c(F)cccc3Cl)cc2N)cc1 | inconclusive: 22.4 µM [activator, single point] | –
C=CCN=c1scc(C)n1/N=C/c1ccc(O)c(O)c1 | – | inactive: 11.8%
COCCNC(=O)COc1ccc(C)cc1C(=O)c1cc(C#N)c(=O)n(C2CC2)c1 | inconclusive: 2.51 µM [activator, partial curve, poor fit] | –
Cc1cc(C)nc(SCC(=O)OCC(=O)N(C)c2c(N)n(Cc3ccccc3)c(=O)[nH]c2=O)n1 | inconclusive: 2.82 µM [activator, single point] | –
Cn1c(SCC(=O)Nc2ccc(N3CCOCC3)cc2)nnc1-c1ccccc1F | inconclusive: 1.41 µM [activator, partial curve, poor fit] | –
Cc1cccc(C)c1NC(=O)C(NC=O)c1ccc(Cl)cc1 (stereo not given) | – | inactive: -14.9%
Cc1ccc(NC(=O)CSc2ccc(-c3ccco3)nn2)cc1 | – | inactive: -10.1%
COc1ccc(N(CC(=O)NCc2ccc3c(c2)OCO3)C(=O)c2csnn2)cc1 | inconclusive: 5.01 µM [activator, single point] | –

Some of the entries so far, tab-delimited.
SMILES	Potency	activation
CCOc1cc(S(=O)(=O)Nc2ncn[nH]2)ccc1Br	inconclusive: 5.01 µM [activator, single point]	–
O=Cc1ccc(N2CCCC2)c([N+](=O)[O-])c1	–	inactive: 7.6%
Cc1ccc(Cl)cc1NC(=S)NN	inconclusive: 10 µM [activator, partial curve]	–
CCCCNC(=O)N(O)C1N(/N=C/c2ccccc2OC)C(=S)SC1(C)C (stereo not given)	inconclusive: 2 µM [activator, full curve]	–
Cc1ccc(S(=O)(=O)NCc2ccc(C(=O)N3CCc4ccccc4C3)cc2)cc1	–	inactive: -10.6%
Cc1ccc(Cn2cc(S(=O)(=O)c3ccc(Cl)cc3)c(=O)c3cc(F)ccc32)cc1	inconclusive: 11.2 µM [activator, partial curve, poor fit]	–
CC(=O)/C(=N\Nc1ccccc1Cl)Sc1cccc2cccnc12	inconclusive: 28.2 µM [activator, single point]	–
O=C1CC(c2ccccc2)c2cc(O)ccc2O1 (stereo not given)	inconclusive: 5.01 µM [activator, single point]	–
CCOC(=O)c1sc(=S)n(-c2ccccc2Cl)c1SC	–	inactive: 0.784%
O=C(O)c1cc(S(=O)(=O)NCCN2CCNC2=O)ccc1O	inconclusive: 2.82 µM [activator, partial curve, poor fit]	–
Cc1c(C(=O)NCc2ccc3c(c2)cc(C)n3C)cccc1[N+](=O)[O-]	–	inactive: -17.3%
Cc1cc2c(=O)n(CC(=O)NCC(=O)Nc3ccc(C(C)C)cc3)cnc2s1	inconclusive: 5.01 µM [activator, single point]	–
Cc1ccc(S(=O)(=O)NCC(c2ccco2)N2CCOCC2)cc1 (stereo not given)	inconclusive: 17.8 µM [activator, single point]	–
